Assay results as given in patent publication US11485769B2, “Peptides and combination of peptides for use in immunotherapy and methods for generating scaffolds for the use against pancreatic cancer and other cancers” (Immatics Biotechnologies GmbH, priority 2015, dated 2022).

System: tumors compared to a panel of normal tissues
Assay: Identification and label-free LC-MS quantitation of HLA-presented tumor associated peptides (presentation profiles/scores)
Design: species or system human; key to Peptide Presentation (presentation score): very highly over-presented on tumors compared to a panel of normal tissues (+++); highly over-presented on tumors compared to a panel of normal tissues (++); over-presented on tumors compared to a panel of normal tissues (+)
Conditions: for Peptide Presentation (presentation score): over-presentation on tumors compared to a panel of normal tissues, label-free LC-MS quantitation of HLA peptides

## 46 (TMVEHNYYV; listed as Homo sapiens) [compound 46]
Esophageal cancers
  peptide additionally detected on esophageal cancers (positive/measured samples): 1/18
Gallbladder cancers
  peptide additionally found on gallbladder cancers (positive/measured samples): 1/17
Head and neck cancers
  peptide additionally found on head and neck cancers (positive/measured samples): 1/8
  peptide additionally detected on kidney cancers (positive/measured samples): 3/23
  peptide additionally detected on lung cancers (positive/measured samples): 9/107
  peptide additionally detected on ovarian cancers (positive/measured samples): 7/20
  Peptide Presentation (presentation score): +++
  peptide additionally detected on urinary bladder cancers (positive/measured samples): 2/15
Pancreas cancers
  peptide additionally found on pancreas cancers (positive/measured samples): 1/19
Skin cancers
  peptide additionally found on skin cancers (positive/measured samples): 1/18
Stomach cancers
  peptide additionally detected on stomach cancers (positive/measured samples): 1/45
Uterus cancers
  peptide additionally found on uterus cancers (positive/measured samples): 1/16

## 107 (FVYGGPQVQL; listed as Homo sapiens) [compound 107]
  Peptide Presentation (presentation score): +

## 118 (TLWYRPPEL; listed as Homo sapiens) [compound 118]
  Peptide Presentation (presentation score): ++

## 43 (HLGVKVFSV; listed as Homo sapiens) [compound 43]
  Peptide Presentation (presentation score): +++

## 41 (GLLAGNEKLTM; listed as Homo sapiens) [compound 41]
  Peptide Presentation (presentation score): ++

## 88 (IIDDTIFNL; listed as Homo sapiens) [compound 88]
  Peptide Presentation (presentation score): ++

## 131 (FLIEEQKIVV; listed as Homo sapiens) [compound 131]
  Peptide Presentation (presentation score): +++

## 142 (SLYGYLRGA; listed as Homo sapiens) [compound 142]
  Peptide Presentation (presentation score): +++

## 14 (FIIDNPQDLKV; listed as Homo sapiens) [compound 14]
  Peptide Presentation (presentation score): +++

## 85 (FLSDGTIISV; listed as Homo sapiens) [compound 85]
  Peptide Presentation (presentation score): ++

## 54 (LTQPGPIASA; listed as Homo sapiens) [compound 54]
  Peptide Presentation (presentation score): +++

## 3 (ILIGETIKI; listed as Homo sapiens) [compound 3]
Colorectal cancers
  peptide additionally detected on colorectal cancers (positive/measured samples): 1/24
  peptide additionally detected on kidney cancers (positive/measured samples): 1/18
  peptide additionally detected on lung cancers (positive/measured samples): 4/91
  peptide additionally detected on ovarian cancers (positive/measured samples): 1/20
  Peptide Presentation (presentation score): +++
  peptide additionally detected on urinary bladder cancers (positive/measured samples): 1/4

## 59 (SLSESFFMV; listed as Homo sapiens) [compound 59]
  Peptide Presentation (presentation score): +

## 50 (LLFGSDGYYV; listed as Homo sapiens) [compound 50]
  Peptide Presentation (presentation score): +++

## 138 (NIFPNPEATFV; listed as Homo sapiens) [compound 138]
  Peptide Presentation (presentation score): ++

## 10 (VLLDKIKNL; listed as Homo sapiens) [compound 10]
  Peptide Presentation (presentation score): +

## 109 (ILASVILNV; listed as Homo sapiens) [compound 109]
  Peptide Presentation (presentation score): ++

## 42 (ILSDMRSQYEV; listed as Homo sapiens) [compound 42]
  Peptide Presentation (presentation score): +++

## 47 (LIYKDLVSV; listed as Homo sapiens) [compound 47]
  Peptide Presentation (presentation score): +

## 154 (KVADLVLML; listed as Homo sapiens) [compound 154]
  Peptide Presentation (presentation score): +

## 169 (FMLPDPQNI; listed as Homo sapiens) [compound 169]
  Peptide Presentation (presentation score): +++

## 119 (VLGDDPQLMKV; listed as Homo sapiens) [compound 119]
  Peptide Presentation (presentation score): +

## 102 (ALYPGTDYTV; listed as Homo sapiens) [compound 102]
  Peptide Presentation (presentation score): +
